# According to paper PMC10747396:
# These are yes or no findings as the source states them, for the method shown. Binding seen in cells or lysates may run through a third protein. Some entries that bind do so weakly or less than the wild type.
# Columns and labels:
# Assay in all cases: co-IP
# [1] = target: HCoV-HKU1 N protein, HIS6 tag (pET28a) (HCoV-HKU1) (UniProt Q5MQC6)
# [2] = target: HCoV-OC43 N protein, HIS6 tag (pET28a) (HCoV-OC43) (UniProt P33469)
# [3] = target: SARS-CoV-2 N protein truncation N^255–419, 3XFlag tag (pCDNA3.1) (SARS-CoV-2) (UniProt P0DTC9)
# [4] = target: SARS-CoV-2 N protein truncation N^364–419, 3XFlag tag (pCDNA3.1) (SARS-CoV-2) (UniProt P0DTC9)
# [5] = target: SARS-CoV-2 N protein truncation N^174–419, 3XFlag tag (pCDNA3.1) (SARS-CoV-2) (UniProt P0DTC9)
# [6] = target: MAVS, 3XFlag tag (pCDNA3.1) (UniProt Q7Z434)
Substance,binding [1],binding [2],binding [3],binding [4],binding [5],binding [6]
"UBC9, GST tag (pGEX-6P-1) (from UniProt P63279 1-158) (enzyme)",binds,binds,–,–,–,–
"human SUMO-conjugating E2 enzyme UBC9, GFP tag (pEGFP-N1) (from UniProt P63279 1-158)",–,–,no binding,no binding,no binding,binds
